Data published in article PMC12355757, “TRIM6 ablation reverses ICB resistance in MSS gastric cancer by unleashing cGAS-STING-dependent antitumor immunity” (Journal of Experimental & Clinical Cancer Research : CR, 2025).
No constants are given. Whether binding was seen depends on the method and setting. In cells and extracts the contact can be indirect. These calls come from enrichment with a bait or labelling near it, and not all partners need be listed.

By UniProt entry, the sequences of proteins in these tests, tags left out. Where a name states a change or a piece, a line headed by the entry shows the natural chain unless it says otherwise. Chains listed by the source or under a name are the forms on record and can include a tag or linker.
Flag-TRIM6 (full length), expressed in MKN28 cells (Q9C030, form named): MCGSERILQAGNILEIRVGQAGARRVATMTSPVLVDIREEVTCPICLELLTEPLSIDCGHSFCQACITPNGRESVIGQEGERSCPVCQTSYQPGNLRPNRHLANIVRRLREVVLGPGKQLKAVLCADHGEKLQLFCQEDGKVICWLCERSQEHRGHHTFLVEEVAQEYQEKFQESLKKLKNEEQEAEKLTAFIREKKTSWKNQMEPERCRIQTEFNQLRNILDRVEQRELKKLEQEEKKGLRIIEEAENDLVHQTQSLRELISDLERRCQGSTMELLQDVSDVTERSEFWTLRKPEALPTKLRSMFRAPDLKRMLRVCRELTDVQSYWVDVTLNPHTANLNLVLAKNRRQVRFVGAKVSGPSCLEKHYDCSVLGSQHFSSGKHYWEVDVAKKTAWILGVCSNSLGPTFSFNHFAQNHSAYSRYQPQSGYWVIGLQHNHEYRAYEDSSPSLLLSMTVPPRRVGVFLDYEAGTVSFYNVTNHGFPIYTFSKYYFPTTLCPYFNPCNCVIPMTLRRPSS
UniProt Q14966: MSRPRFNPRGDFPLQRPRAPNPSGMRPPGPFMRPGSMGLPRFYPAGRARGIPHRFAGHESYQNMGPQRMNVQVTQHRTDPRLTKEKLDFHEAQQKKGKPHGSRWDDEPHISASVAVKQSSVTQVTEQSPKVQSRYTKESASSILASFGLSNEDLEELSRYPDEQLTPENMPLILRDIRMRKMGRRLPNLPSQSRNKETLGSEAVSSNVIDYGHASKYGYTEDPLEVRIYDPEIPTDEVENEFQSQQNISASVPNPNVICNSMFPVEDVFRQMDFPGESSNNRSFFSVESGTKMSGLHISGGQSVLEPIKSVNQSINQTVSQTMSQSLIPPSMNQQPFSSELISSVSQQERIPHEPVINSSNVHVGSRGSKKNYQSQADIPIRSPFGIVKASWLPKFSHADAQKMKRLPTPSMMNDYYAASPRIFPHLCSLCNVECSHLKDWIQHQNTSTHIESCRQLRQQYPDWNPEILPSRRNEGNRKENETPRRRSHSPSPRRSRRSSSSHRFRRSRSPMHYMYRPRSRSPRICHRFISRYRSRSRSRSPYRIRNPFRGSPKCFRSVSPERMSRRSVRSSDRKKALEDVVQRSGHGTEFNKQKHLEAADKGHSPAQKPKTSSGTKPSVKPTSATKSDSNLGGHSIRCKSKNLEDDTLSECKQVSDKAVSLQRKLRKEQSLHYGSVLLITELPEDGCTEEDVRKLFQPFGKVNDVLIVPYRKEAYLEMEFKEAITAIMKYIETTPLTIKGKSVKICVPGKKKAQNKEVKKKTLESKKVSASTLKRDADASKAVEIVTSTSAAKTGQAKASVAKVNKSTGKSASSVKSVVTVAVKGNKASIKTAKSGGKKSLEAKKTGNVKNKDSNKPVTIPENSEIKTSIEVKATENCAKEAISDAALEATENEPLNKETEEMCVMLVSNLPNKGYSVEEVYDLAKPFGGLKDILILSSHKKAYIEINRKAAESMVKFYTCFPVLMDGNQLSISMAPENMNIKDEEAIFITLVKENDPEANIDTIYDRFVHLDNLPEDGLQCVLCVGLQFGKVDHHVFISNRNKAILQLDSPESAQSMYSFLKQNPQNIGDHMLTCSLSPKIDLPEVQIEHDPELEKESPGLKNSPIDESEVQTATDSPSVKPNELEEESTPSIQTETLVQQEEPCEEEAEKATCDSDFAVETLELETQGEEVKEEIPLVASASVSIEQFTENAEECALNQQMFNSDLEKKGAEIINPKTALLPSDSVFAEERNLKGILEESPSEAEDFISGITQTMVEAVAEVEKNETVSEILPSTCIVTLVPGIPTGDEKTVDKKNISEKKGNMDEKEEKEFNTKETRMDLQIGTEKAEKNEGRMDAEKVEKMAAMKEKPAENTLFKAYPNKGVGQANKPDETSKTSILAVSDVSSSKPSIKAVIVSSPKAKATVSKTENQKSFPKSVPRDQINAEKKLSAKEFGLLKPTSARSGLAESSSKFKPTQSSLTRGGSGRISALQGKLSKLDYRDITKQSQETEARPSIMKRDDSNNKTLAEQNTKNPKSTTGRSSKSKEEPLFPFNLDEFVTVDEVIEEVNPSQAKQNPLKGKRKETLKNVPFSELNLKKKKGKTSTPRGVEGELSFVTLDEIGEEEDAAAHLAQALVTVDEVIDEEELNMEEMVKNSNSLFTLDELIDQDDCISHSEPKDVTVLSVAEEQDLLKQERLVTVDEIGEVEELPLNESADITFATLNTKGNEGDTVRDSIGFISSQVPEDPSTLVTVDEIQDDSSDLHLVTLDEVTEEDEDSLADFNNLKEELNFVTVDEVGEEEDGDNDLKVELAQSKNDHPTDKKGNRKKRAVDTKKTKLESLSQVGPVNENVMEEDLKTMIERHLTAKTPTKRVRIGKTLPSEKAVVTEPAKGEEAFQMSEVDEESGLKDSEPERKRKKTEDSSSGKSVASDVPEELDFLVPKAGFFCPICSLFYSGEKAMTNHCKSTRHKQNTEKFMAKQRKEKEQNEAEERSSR
UniProt Q8N884: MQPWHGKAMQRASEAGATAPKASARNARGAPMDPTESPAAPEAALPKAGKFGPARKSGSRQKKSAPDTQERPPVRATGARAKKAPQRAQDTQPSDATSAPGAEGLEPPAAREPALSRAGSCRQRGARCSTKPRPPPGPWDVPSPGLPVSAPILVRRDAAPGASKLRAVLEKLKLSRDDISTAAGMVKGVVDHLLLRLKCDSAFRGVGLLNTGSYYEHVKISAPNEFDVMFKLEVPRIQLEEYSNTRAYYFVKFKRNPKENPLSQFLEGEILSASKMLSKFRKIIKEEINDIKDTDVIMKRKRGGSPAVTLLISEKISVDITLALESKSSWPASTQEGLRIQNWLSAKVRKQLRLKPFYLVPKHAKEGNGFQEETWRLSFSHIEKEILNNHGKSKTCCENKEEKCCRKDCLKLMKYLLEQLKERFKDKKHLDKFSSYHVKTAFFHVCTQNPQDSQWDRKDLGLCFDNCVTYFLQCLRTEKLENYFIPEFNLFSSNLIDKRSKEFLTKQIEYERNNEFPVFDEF

B1: OASL, endogenous (protein, UniProt Q15646 1-514)
chain: MALMQELYSTPASRLDSFVAQWLQPHREWKEEVLDAVRTVEEFLRQEHFQGKRGLDQDVRVLKVVKVGSFGNGTVLRSTREVELVAFLSCFHSFQEAAKHHKDVLRLIWKTMWQSQDLLDLGLEDLRMEQRVPDALVFTIQTRGTAEPITVTIVPAYRALGPSLPNSQPPPEVYVSLIKACGGPGNFCPSFSELQRNFVKHRPTKLKSLLRLVKHWYQQYVKARSPRANLPPLYALELLTIYAWEMGTEEDENFMLDEGFTTVMDLLLEYEVICIYWTKYYTLHNAIIEDCVRKQLKKERPIILDPADPTLNVAEGYRWDIVAQRASQCLKQDCCYDNRENPISSWNVKRARDIHLTVEQRGYPDFNLIVNPYEPIRKVKEKIRRTRGYSGLQRLSFQVPGSERQLLSSRCSLAKYGIFSHTHIYLLETIPSEIQVFVKNPDGGSYAYAINPNSFILGLKQQIEDQQGLPKKQQQLEFQGQVLQDWLGLGIYGIQDSDTLILSKKKGEALFPAS

Target: Flag-TRIM6 (full length), expressed in MKN28 cells (human) (UniProt Q9C030)
Assay: affinity purification with mass spectrometry; MKN28 cells transiently expressing empty vector, Flag-TRIM6 or Flag-TRIM6-ΔPRY-SPRY; anti-Flag immunoprecipitation, SDS-PAGE, gel slices digested with trypsin, LC-MS/MS

binding | Molecule
binds | ZNF638, endogenous (from UniProt Q14966 1-1978)
binds | cGAS (cyclic GMP-AMP synthase), endogenous (from UniProt Q8N884 1-522) (enzyme)
binds | B1
